Screen size: about 340,000 compounds; about 170 (0.05%) were called active. This list was built around the results that the source calls inconclusive (neither active nor inactive); the mix of calls is not that of the screen. Calls come from the whole dose curve; as a rule, active = well fitted inhibition curve with a large enough effect in the signal ratio, with a control signal flat (not every such curve was filed as active); inconclusive = small, poorly fitted or top-dose-only effect, or effect the other way, or a change in a side signal; inactive = flat fitted curve, though single readings scatter; the % refers to the signal ratio. Where the call is inconclusive, the potency comes from a doubtful curve fit.
Experiment: qHTS Assay to Find Inhibitors of Chronic Active B-Cell Receptor Signaling;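 for activity change, negative = inhibition: plate controls were basal doxycycline-induced cells for no effect and cells given 10 µM MG132 for full effect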
Details: ABC-DLBCL IkBa-CBG/CBR reporter, luminescence ratio (green luciferase fused to IkBa over red control in TMD8 lymphoma cells), 4 h; activity change, negative = inhibition: at 46.1 µM (top of the series)
In short: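 TMD8 ABC-DLBCL cells carrying doxycycline-inducible green luciferase fused to IkappaBalpha plus unfused red luciferase were exposed to compounds (up to 46 uM) for 4 hrs at 37C. Activity came from the overlap-corrected green/red luminescence ratio.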
Potency is the fitted concentration of half-maximal effect.

| Compound | activity change, negative = inhibition | Potency |
| --- | --- | --- |
| COc1ccc(C2/C(=C(/O)c3ccccc3)C(=O)C(=O)N2C)cc1OC (centres undefined) | inconclusive: -0.238% | – |
| N/C(=N\OC(=O)C1CCCCC1)c1ccccn1 | – | inconclusive: 35.5 µM [falling, single point] |
| O=C(CN(c1ccc(F)cc1)S(=O)(=O)c1ccc2c(c1)OCCO2)NCc1cccnc1 | – | inconclusive: 4.61 µM [falling, single point] |
| Cc1ccc(C(OCC(O)CNCc2ccc(F)cc2)c2ccccc2)cc1 (centres undefined) | inconclusive: -5.17% | – |
| COc1ccc(C(=O)c2nccc3ccccc23)cc1 | inactive: -3.89% | – |
| CCc1cc(C(=O)OCC(=O)N2CCC(c3ccccc3)=N2)sc1C | inactive: -5.63% | – |
| CC(O)CNc1nc2c(c(=O)n(C)c(=O)n2C)n1Cc1cccc(C(F)(F)F)c1 (centres undefined) | inactive: 1.27% | – |
| COc1nc(C)ccc1-c1noc(-c2cccnc2)n1 | inactive: -0.358% | – |
| O=C1CC(c2ccccc2)=Nc2ccccc2N1Cc1ccccc1 | inactive: 1.78% | – |
| C(=N\NC1=NCCN1)/c1ccncc1 | inactive: -2.03% | – |
| O=C(CCN1C(=O)/C(=C\c2cccs2)SC1=S)Nc1ccccn1 | – | inconclusive: 5.62 µM [falling, partial curve] |
| COCCOC(=O)C1=C(C)NC(C)=C(C(=O)OCCOC)C1/C=C/c1ccccc1OC | inconclusive: -12.3% | – |
| Cc1ccc(C)c(NC(=O)c2nnn(Cc3ccccc3)c2N)c1 | inconclusive: -7.84% | – |
| COc1ccc(C(=O)OC2CCN(C)CC2)cc1 | inactive: 16.8% | – |
| COc1cccc(Cl)c1NC(=O)N1CCN(c2cc(C)nc3ccccc23)CC1 | inconclusive: -1.96% | – |
| Cc1ccc2nc(-c3ccncc3)cc(-c3ccccc3)c2c1 | inactive: -0.295% | – |
| O=C(Nc1cccc(Cl)c1N1CCCC1)c1ccc(Br)o1 | inactive: -3.06% | – |
| COc1ccc2c(-c3ccccc3)cc(N3CCOCC3)nc2c1 | inactive: -15.1% | – |
| CCOC(=O)c1cnn(-c2ccc(C(=O)Nc3ccc(C(C)=O)cc3)cc2)c1N | – | inconclusive: 6.31 µM [rising, single point] |
| CCOC(=O)C(=Cc1ccc(-c2ccsc2C(=O)OC)o1)C(=O)OCC | inconclusive: -10.2% | – |
| Cc1ccc(S(=O)(=O)N(CC(=O)NCc2cccs2)c2ccccc2)cc1 | inconclusive: 16.2% | – |
| Cc1cc(S(=O)(=O)N2CCCC(N3CCOCC3)C2)c(C)cc1Cl (centres undefined) | inactive: -0.337% | – |
| O=C(CC1SC(N2CCOCC2)=NC1=O)Nc1cccc(C(F)(F)F)c1 (centres undefined) | inconclusive: 0.599% | – |
| COCCN1C(=O)c2ccccc2C(C(=O)NCCN(C)C)C1c1ccc(F)cc1 (centres undefined) | inconclusive: -0.708% | – |
| Cc1cc(-c2nnc(CSc3nnc(NC(=O)c4ccc(C(C)(C)C)cc4)s3)o2)ccc1[N+](=O)[O-] | inactive: 1.74% | – |
| CCCCC(=O)OCc1c(-c2ccccc2)ncc2ccccc12 | – | inconclusive: 18.4 µM [falling, partial curve] |
| CN(C)CC(=O)Nc1nc(-c2ccccc2)cs1 | inconclusive: -0.103% | – |

| Compound | activity change, negative = inhibition | Potency |
| --- | --- | --- |
| O=C(CCCc1nc(-c2ccc(Cl)cc2)no1)Nc1cccnc1 | inconclusive: 9.08% | – |
| N#Cc1ccccc1OCC(=O)Nc1nnc(C2CC2)s1 | – | inconclusive: 16.4 µM [falling, partial curve] |
| CCOc1ccc(C(=O)Nc2cc(C)c3c(=O)oc4ccccc4c3n2)cc1 | – | inconclusive: 18.4 µM [falling, single point] |
| O=C(CSc1nnc(Nc2ccccc2F)s1)c1cc2ccccc2o1 | inconclusive: -16.9% | – |
| Cn1c(CSCc2ccc(F)cc2)n[nH]c1=S | inactive: -0.707% | – |
| NC(=O)CC(NC(=O)Cc1cccc2ccccc12)c1ccc(NCCOc2ccccc2)c([N+](=O)[O-])c1 (centres undefined) | – | inconclusive: 2.51 µM [falling, full curve, poor fit] |
| CSc1cccc(NC(=O)c2cnn3ccccc23)c1 | – | inconclusive: 35.5 µM [falling, single point] |
| COc1ccccc1-c1ccc(NC2CCCC2)nn1 | – | inconclusive: 18.4 µM [falling, partial curve] |
| CCCCS(=O)Cc1ccccc1 (centres undefined) | inconclusive: -18.4% | – |
| Cc1ccc2c(c1)nnn2C1CCN(C(=O)C2CCCCC2)CC1 | inactive: -0.594% | – |
| COc1nnc(-c2ccc(C(=O)N3C[C@@H]4C[C@H](C3)c3cccc(=O)n3C4)cc2)c2ccccc12 | inactive: -3.53% | – |
| O=C(CSc1nc2ccccc2n1Cc1ccccc1)N/N=C/c1ccco1 | inconclusive: -14.9% | – |
| Nc1nc2ccc(-c3nc4ccccc4o3)cc2s1 | – | inconclusive: 16.4 µM [falling, partial curve] |
| Cc1cc(=O)[nH]c(SCC(=O)Nc2nc(-c3ccccc3)c(-c3ccccc3)o2)n1 | inconclusive: 2.63% | – |
| O=C(Nc1ncc2c(n1)-c1ccccc1CC2)c1cccs1 | – | inconclusive: 22.4 µM [falling, partial curve] |
| COc1ccc(-c2nc(C#N)c(N3CCCCCC3)o2)cc1OC | – | inconclusive: 16.4 µM [falling, single point] |
| Nc1ccc(Cl)cc1C(=O)OCC(=O)NC1CCS(=O)(=O)C1 (centres undefined) | – | inconclusive: 15.8 µM [falling, single point] |
| CCCCn1c(N)c(N(CCOC)C(=O)CSc2nnc(-c3ccc(F)cc3)n2N)c(=O)[nH]c1=O | inactive: -2.29% | – |
| CCN(CC(=O)NC(C)(C)C)C(=O)CCl | inactive: -10.2% | – |
| C=CCOc1c(CNc2cccc(C(=O)O)c2)cccc1OCC | – | inconclusive: 15.8 µM [falling, single point] |
| O=C(c1ccco1)N1CCN(C(=O)c2cc(-c3ccccc3F)no2)CC1 | inconclusive: 2.48% | – |
| COc1cc(C(=O)NCCc2ccccc2)ccc1OCC(=O)N1CCOCC1 | – | inconclusive: 16.4 µM [falling, partial curve, poor fit] |
| COc1ccc2c(C)cc3n[nH]c(=S)n3c2c1 | inactive: 23.9% | – |
| CC1CCc2nn(CC(=O)NCc3ccco3)cc2C1 (centres undefined) | inconclusive: -11.7% | – |
| Cc1ccc(/C=N\Nc2nc3ccc(Cl)cc3[nH]2)o1 | – | inconclusive: 20 µM [falling, single point] |
| Cc1cccc(NC(=O)CCC(=O)OCc2ccc(Br)cc2)c1 | inconclusive: 2.64% | – |
| CCN1CCN(C(=S)c2ccc(OCC(=O)NCc3ccccc3)cc2)CC1 | inconclusive: -2.34% | – |

By substructure, the compounds so far with a thiophene ring, fused or not (5)

| Compound | activity change, negative = inhibition | Potency |
| --- | --- | --- |
| CCc1cc(C(=O)OCC(=O)N2CCC(c3ccccc3)=N2)sc1C | inactive: -5.63% | – |
| O=C(CCN1C(=O)/C(=C\c2cccs2)SC1=S)Nc1ccccn1 | – | inconclusive: 5.62 µM [falling, partial curve] |
| CCOC(=O)C(=Cc1ccc(-c2ccsc2C(=O)OC)o1)C(=O)OCC | inconclusive: -10.2% | – |
| Cc1ccc(S(=O)(=O)N(CC(=O)NCc2cccs2)c2ccccc2)cc1 | inconclusive: 16.2% | – |
| O=C(Nc1ncc2c(n1)-c1ccccc1CC2)c1cccs1 | – | inconclusive: 22.4 µM [falling, partial curve] |

Source: PubChem BioAssay AID493014 (National Center for Advancing Translational Sciences (NCATS), 2011)
